We go through 1 sequence from publication doi:10.1101/2023.11.14.566657.

Chains of the proteins cited; added tags and fusions are not shown. Lines headed by an entry give the natural chain unless they say otherwise; changes in a name come on top.
UniProt P43351: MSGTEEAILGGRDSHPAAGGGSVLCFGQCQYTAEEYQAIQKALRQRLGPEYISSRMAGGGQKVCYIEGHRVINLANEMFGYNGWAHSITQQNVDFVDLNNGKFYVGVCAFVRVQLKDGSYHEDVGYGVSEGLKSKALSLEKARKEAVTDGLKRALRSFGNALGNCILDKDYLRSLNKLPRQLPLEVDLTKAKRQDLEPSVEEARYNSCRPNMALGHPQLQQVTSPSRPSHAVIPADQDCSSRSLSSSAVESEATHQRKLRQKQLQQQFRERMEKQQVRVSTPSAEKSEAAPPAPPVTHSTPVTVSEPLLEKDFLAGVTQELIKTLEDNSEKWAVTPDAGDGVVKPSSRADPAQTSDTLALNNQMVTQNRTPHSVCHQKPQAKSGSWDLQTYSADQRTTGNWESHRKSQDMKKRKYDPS

The target of the series is RAD52 wild type (human) (UniProt P43351). The experiment in a line: mass photometry. Conditions: 200 nM DNA, spool-like double ring rare.

For at least one entry, the source does not settle the construct or the ends of the probe. At least one verdict was read from the data and is not stated in words by the source.

For the sequence “TTTTTTTTTTTTTTTTTTTTTTTTTTTTTTTTTTTTTTTTTTTTT [dT45]”, the binding result is recorded as “binds”.
